± gives the standard deviation of the averaged measurements. Only a part is listed here, and it is no random draw. Most entries show no effect beyond the scatter of the controls.

Sequences of proteins named here, by UniProt entry; tags and fusion partners are left off. A change or cut given only in a name is not applied to a line headed by its entry.
UniProt P52429: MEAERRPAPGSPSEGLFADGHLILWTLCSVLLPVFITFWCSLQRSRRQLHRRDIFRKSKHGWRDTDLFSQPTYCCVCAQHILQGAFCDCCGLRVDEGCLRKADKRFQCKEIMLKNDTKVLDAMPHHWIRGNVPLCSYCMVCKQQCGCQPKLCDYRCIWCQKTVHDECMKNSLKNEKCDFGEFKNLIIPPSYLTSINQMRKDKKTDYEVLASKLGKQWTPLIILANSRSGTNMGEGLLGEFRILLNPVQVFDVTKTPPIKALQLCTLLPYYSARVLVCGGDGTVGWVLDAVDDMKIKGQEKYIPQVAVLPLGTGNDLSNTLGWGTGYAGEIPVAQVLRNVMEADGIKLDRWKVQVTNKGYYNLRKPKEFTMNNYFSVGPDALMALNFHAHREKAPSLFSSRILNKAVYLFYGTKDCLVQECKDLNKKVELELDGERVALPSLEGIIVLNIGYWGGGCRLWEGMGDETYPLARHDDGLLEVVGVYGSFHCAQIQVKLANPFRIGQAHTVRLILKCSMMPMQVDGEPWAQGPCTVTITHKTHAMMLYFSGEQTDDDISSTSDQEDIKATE
UniProt O43502: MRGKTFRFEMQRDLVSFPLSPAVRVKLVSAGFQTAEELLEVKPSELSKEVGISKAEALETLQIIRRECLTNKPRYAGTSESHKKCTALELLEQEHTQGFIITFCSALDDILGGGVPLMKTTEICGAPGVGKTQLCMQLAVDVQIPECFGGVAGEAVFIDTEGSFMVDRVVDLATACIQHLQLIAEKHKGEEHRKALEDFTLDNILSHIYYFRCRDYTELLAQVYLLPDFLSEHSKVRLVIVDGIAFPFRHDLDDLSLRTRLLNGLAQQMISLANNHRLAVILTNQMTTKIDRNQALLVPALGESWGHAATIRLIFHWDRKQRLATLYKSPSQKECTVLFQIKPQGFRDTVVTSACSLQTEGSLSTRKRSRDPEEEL
UniProt Q9H0H0, whole entry: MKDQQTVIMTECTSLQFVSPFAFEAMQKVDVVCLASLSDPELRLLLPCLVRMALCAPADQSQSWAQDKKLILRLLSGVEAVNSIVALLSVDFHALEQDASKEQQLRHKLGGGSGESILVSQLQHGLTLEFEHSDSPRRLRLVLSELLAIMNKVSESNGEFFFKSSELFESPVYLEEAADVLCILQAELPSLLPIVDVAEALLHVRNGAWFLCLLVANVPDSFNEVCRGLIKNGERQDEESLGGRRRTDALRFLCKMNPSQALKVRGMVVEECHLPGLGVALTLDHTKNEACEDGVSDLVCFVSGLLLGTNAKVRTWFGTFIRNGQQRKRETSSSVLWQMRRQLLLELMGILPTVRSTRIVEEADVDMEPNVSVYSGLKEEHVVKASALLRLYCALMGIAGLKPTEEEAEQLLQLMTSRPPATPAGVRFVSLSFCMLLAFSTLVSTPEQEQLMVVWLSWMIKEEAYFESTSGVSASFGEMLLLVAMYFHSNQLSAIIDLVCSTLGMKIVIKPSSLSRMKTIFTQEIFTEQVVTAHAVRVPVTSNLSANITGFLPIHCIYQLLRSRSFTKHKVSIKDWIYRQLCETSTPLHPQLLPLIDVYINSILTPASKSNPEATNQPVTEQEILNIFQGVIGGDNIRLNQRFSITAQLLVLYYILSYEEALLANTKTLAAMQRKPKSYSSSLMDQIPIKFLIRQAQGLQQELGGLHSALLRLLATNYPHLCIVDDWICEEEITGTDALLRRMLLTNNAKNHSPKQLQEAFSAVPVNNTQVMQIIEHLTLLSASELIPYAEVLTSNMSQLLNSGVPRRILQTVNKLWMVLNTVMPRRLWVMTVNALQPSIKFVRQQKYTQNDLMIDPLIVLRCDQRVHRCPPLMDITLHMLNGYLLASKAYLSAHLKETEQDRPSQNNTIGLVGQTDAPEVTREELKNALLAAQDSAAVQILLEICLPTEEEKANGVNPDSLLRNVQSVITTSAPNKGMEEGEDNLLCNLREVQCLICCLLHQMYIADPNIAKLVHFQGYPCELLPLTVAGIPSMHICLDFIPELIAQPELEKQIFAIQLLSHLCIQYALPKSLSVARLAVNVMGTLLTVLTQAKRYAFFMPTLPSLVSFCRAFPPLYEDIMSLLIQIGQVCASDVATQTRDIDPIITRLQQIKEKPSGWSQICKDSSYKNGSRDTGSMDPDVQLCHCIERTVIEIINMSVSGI
UniProt P11940, whole entry: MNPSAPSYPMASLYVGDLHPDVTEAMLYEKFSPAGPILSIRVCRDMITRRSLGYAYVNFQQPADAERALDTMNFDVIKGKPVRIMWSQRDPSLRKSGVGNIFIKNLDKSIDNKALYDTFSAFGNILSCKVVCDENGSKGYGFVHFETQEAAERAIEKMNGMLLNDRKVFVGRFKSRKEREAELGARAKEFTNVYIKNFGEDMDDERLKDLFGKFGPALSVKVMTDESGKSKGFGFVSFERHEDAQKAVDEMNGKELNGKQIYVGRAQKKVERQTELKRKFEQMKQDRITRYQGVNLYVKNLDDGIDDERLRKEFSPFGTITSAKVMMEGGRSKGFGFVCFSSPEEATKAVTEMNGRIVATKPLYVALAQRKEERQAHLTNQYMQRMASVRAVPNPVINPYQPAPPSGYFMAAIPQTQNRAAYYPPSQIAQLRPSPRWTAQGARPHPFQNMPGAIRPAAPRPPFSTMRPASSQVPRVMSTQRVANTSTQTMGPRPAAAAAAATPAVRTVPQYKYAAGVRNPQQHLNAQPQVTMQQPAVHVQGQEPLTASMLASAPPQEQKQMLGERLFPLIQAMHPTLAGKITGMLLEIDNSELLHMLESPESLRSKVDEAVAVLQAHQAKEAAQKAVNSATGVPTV
UniProt Q93075: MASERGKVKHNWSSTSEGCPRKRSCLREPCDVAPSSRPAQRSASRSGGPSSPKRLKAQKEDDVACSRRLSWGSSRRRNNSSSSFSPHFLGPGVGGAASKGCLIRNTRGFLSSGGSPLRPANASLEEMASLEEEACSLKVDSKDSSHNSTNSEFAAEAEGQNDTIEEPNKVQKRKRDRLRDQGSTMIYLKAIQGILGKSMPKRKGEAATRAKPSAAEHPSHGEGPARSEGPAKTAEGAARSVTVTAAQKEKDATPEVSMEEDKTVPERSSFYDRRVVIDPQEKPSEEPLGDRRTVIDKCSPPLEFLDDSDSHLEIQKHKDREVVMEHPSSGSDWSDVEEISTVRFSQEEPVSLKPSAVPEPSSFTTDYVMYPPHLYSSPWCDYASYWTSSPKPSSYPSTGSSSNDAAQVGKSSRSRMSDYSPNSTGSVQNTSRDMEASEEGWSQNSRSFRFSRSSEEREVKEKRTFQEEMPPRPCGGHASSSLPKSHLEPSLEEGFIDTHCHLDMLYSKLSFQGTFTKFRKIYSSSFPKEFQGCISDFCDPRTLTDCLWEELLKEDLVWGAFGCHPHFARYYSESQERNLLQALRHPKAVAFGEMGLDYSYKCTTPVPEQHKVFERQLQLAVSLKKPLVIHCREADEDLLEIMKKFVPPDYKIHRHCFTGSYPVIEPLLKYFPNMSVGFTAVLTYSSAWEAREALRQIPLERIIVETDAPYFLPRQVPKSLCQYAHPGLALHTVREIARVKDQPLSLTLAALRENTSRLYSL
UniProt Q969F9: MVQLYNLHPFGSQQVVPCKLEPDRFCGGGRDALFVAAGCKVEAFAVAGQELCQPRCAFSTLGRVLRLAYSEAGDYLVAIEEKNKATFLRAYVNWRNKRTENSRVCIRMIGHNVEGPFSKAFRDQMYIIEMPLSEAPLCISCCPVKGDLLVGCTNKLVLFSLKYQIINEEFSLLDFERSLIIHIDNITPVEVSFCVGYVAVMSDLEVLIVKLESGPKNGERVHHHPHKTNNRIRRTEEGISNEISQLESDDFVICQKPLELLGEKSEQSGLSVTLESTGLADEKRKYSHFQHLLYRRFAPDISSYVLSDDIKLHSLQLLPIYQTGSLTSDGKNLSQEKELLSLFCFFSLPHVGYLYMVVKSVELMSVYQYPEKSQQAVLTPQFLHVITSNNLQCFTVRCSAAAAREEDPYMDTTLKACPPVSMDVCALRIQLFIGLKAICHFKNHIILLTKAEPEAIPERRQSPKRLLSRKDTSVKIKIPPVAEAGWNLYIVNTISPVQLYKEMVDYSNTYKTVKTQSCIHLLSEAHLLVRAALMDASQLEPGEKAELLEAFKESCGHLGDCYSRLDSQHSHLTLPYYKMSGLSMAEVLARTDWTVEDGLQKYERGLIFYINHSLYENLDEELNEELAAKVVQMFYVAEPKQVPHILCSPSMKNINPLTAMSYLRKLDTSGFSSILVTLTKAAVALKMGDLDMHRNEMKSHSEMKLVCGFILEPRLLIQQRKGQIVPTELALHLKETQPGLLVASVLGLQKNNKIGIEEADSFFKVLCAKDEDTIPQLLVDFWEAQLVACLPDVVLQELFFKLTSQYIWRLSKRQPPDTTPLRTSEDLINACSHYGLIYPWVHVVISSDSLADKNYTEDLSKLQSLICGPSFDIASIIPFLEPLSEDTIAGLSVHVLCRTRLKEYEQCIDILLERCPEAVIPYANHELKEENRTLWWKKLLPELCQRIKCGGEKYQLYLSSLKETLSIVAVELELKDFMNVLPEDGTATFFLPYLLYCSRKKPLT
UniProt Q8N6H7: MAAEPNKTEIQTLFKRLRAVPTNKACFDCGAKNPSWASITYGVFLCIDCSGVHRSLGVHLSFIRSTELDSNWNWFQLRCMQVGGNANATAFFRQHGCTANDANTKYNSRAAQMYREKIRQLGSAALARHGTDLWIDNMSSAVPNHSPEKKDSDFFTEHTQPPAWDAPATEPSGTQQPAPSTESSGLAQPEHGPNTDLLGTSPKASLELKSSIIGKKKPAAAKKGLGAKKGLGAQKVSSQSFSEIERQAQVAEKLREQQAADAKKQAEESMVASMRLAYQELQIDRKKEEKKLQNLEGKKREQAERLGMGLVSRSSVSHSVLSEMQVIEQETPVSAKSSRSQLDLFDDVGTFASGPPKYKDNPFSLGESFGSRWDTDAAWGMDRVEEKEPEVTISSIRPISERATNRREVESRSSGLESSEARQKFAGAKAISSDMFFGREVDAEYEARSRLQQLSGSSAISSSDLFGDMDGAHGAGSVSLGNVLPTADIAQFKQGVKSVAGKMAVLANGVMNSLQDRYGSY
UniProt Q86W74: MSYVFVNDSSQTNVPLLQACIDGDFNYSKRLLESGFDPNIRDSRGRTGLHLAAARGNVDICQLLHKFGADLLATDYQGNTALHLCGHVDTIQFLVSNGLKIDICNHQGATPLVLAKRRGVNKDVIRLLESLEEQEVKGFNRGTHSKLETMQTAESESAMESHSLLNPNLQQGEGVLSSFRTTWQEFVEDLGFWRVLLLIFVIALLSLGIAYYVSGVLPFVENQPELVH
UniProt Q9BW66: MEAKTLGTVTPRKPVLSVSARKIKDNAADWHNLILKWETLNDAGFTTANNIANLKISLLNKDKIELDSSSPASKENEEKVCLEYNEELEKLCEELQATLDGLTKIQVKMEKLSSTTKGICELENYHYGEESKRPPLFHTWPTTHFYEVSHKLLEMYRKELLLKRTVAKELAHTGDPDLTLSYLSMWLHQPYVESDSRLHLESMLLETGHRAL
UniProt P50990: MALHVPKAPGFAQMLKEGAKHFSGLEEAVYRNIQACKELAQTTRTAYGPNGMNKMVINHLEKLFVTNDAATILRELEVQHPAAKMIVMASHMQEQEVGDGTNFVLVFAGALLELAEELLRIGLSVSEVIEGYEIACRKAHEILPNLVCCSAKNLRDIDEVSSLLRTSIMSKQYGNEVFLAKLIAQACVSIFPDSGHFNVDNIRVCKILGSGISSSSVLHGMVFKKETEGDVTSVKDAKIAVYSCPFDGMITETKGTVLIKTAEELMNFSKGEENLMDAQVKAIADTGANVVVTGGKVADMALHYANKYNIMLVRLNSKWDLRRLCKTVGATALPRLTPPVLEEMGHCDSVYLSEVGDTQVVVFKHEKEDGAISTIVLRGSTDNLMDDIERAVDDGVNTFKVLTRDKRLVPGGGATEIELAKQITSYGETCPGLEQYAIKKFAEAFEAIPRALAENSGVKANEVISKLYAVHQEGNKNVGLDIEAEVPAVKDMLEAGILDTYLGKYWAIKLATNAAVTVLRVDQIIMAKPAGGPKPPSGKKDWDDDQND

In the supplement of paper PMC6411743 one finds NP40-soluble protein abundance data, which are given here for ten targets.

Compound in this assay: Nc1ncnc2c1ncn2[C@@H]1O[C@H](COP(=O)(O)OP(=O)(O)NP(=O)(O)O)[C@@H](O)[C@H]1O [adenylyl imidodiphosphate]
The experiment in a line: NP40-soluble protein abundance relative to vehicle (solubility fold change) (ratio); higher = more soluble protein in presence of AMP-PNP. In outline: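 Values are fold changes against the detergent-processed vehicle, based on vsn-normalised intensities. Jurkat crude lysate was treated at eight concentrations from 0.1 to 10 mM (10 min at room temperature, then 3 min at 37 °C), solubilised with 0.8% NP40 and benzonase, ultracentrifuged and analysed by TMT-labelled LC-MS/MS over three independent experiments.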

Turning to “I3L112 and related entries (UniProt P52429)”, the NP40-soluble protein abundance (concentration: 0.1mM) came to 1.05 ± 0.041 and the NP40-soluble protein abundance (concentration: 0.5mM) came to 1 ± 0.075.

Turning to “J3QKK3 and related entries (UniProt O43502)”, the NP40-soluble protein abundance is, setting by setting: (concentration: 0.1mM) 0.963 ± 0.017; (concentration: 0.5mM) 0.965 ± 0.047.

As to “J3KMZ7 and related entries (UniProt Q9H0H0)”, the NP40-soluble protein abundance by setting is: (concentration: 0.1mM) 1.02 ± 0.034; (concentration: 0.5mM) 1.02 ± 0.025.

Regarding “H0YAR2 and related entries (UniProt P11940)”, the NP40-soluble protein abundance is 0.972 ± 0.018 (concentration: 0.1mM) and 1.02 ± 0.039 (concentration: 0.5mM).

Regarding “H7C1W4 and related entries (UniProt Q93075+H7C1W4)”, the NP40-soluble protein abundance (concentration: 0.1mM) came out at 0.998 ± 0.037 and the NP40-soluble protein abundance (concentration: 0.5mM) is 0.969 ± 0.019.

For “G5E9V4 and related entries (UniProt Q969F9)”, the NP40-soluble protein abundance amounted to 1 ± 0.017 (concentration: 0.1mM) and 0.997 ± 0.022 (concentration: 0.5mM).

Consider “G5E9L0 and related entries (UniProt Q8N6H7)”, for which the NP40-soluble protein abundance was found to be 0.994 ± 0.027 (concentration: 0.1mM) and 0.988 ± 0.034 (concentration: 0.5mM).

Take “J3KP26 and related entries (UniProt Q86W74)”: the NP40-soluble protein abundance reads like this: (concentration: 0.1mM) 0.999 ± 0.018; (concentration: 0.5mM) 0.985 ± 0.063.

As for “H0YN33 and related entries (UniProt Q9BW66)”, the NP40-soluble protein abundance (concentration: 0.1mM) came to 1.02 ± 0.037 and the NP40-soluble protein abundance (concentration: 0.5mM) amounted to 1.09 ± 0.058.

For “H7C4C8 and related entries (UniProt P50990)”, the NP40-soluble protein abundance was determined as 1.01 ± 0.02 (concentration: 0.1mM) and 1 ± 0.025 (concentration: 0.5mM).
